Chains of the proteins cited; added tags and fusions are not shown.
UniProt Q5TEA3: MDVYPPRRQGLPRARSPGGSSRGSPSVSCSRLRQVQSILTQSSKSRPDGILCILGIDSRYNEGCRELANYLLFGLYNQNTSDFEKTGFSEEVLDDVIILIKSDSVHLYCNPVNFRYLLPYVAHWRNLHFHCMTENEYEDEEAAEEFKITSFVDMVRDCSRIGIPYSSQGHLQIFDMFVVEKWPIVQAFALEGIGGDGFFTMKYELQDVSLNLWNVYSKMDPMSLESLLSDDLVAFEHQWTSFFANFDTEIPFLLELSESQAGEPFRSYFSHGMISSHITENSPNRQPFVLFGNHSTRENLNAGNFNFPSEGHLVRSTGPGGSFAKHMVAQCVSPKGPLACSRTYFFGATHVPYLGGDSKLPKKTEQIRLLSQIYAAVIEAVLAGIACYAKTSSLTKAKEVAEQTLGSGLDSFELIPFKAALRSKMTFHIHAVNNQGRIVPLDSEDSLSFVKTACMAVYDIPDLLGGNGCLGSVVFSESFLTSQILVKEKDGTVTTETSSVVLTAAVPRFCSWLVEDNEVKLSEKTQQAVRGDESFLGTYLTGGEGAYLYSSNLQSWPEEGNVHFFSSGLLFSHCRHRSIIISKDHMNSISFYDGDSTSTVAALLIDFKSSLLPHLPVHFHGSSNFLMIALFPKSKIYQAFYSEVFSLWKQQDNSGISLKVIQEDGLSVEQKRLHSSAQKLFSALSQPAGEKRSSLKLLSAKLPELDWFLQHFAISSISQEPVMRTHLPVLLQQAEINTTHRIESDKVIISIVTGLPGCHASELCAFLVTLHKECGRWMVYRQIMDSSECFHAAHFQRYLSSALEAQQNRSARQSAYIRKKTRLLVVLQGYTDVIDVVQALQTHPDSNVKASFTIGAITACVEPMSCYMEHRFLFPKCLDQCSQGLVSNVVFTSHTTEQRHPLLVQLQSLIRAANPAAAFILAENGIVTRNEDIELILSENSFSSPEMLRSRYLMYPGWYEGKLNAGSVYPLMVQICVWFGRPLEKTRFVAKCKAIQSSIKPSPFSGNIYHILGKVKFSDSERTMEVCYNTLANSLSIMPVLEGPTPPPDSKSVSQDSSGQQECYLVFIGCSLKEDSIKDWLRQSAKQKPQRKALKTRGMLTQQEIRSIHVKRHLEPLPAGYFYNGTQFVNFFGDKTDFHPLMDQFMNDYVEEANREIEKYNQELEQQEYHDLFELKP
UniProt P36405: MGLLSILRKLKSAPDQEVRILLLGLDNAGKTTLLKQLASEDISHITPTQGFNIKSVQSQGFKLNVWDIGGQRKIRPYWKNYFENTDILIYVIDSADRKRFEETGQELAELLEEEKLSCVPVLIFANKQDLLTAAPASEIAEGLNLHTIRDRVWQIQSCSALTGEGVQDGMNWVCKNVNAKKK
UniProt Q03135: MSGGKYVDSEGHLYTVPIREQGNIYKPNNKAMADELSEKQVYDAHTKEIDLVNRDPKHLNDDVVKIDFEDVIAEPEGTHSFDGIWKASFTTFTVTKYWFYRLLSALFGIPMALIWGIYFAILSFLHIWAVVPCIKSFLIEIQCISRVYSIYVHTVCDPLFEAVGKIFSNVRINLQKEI
UniProt Q14204: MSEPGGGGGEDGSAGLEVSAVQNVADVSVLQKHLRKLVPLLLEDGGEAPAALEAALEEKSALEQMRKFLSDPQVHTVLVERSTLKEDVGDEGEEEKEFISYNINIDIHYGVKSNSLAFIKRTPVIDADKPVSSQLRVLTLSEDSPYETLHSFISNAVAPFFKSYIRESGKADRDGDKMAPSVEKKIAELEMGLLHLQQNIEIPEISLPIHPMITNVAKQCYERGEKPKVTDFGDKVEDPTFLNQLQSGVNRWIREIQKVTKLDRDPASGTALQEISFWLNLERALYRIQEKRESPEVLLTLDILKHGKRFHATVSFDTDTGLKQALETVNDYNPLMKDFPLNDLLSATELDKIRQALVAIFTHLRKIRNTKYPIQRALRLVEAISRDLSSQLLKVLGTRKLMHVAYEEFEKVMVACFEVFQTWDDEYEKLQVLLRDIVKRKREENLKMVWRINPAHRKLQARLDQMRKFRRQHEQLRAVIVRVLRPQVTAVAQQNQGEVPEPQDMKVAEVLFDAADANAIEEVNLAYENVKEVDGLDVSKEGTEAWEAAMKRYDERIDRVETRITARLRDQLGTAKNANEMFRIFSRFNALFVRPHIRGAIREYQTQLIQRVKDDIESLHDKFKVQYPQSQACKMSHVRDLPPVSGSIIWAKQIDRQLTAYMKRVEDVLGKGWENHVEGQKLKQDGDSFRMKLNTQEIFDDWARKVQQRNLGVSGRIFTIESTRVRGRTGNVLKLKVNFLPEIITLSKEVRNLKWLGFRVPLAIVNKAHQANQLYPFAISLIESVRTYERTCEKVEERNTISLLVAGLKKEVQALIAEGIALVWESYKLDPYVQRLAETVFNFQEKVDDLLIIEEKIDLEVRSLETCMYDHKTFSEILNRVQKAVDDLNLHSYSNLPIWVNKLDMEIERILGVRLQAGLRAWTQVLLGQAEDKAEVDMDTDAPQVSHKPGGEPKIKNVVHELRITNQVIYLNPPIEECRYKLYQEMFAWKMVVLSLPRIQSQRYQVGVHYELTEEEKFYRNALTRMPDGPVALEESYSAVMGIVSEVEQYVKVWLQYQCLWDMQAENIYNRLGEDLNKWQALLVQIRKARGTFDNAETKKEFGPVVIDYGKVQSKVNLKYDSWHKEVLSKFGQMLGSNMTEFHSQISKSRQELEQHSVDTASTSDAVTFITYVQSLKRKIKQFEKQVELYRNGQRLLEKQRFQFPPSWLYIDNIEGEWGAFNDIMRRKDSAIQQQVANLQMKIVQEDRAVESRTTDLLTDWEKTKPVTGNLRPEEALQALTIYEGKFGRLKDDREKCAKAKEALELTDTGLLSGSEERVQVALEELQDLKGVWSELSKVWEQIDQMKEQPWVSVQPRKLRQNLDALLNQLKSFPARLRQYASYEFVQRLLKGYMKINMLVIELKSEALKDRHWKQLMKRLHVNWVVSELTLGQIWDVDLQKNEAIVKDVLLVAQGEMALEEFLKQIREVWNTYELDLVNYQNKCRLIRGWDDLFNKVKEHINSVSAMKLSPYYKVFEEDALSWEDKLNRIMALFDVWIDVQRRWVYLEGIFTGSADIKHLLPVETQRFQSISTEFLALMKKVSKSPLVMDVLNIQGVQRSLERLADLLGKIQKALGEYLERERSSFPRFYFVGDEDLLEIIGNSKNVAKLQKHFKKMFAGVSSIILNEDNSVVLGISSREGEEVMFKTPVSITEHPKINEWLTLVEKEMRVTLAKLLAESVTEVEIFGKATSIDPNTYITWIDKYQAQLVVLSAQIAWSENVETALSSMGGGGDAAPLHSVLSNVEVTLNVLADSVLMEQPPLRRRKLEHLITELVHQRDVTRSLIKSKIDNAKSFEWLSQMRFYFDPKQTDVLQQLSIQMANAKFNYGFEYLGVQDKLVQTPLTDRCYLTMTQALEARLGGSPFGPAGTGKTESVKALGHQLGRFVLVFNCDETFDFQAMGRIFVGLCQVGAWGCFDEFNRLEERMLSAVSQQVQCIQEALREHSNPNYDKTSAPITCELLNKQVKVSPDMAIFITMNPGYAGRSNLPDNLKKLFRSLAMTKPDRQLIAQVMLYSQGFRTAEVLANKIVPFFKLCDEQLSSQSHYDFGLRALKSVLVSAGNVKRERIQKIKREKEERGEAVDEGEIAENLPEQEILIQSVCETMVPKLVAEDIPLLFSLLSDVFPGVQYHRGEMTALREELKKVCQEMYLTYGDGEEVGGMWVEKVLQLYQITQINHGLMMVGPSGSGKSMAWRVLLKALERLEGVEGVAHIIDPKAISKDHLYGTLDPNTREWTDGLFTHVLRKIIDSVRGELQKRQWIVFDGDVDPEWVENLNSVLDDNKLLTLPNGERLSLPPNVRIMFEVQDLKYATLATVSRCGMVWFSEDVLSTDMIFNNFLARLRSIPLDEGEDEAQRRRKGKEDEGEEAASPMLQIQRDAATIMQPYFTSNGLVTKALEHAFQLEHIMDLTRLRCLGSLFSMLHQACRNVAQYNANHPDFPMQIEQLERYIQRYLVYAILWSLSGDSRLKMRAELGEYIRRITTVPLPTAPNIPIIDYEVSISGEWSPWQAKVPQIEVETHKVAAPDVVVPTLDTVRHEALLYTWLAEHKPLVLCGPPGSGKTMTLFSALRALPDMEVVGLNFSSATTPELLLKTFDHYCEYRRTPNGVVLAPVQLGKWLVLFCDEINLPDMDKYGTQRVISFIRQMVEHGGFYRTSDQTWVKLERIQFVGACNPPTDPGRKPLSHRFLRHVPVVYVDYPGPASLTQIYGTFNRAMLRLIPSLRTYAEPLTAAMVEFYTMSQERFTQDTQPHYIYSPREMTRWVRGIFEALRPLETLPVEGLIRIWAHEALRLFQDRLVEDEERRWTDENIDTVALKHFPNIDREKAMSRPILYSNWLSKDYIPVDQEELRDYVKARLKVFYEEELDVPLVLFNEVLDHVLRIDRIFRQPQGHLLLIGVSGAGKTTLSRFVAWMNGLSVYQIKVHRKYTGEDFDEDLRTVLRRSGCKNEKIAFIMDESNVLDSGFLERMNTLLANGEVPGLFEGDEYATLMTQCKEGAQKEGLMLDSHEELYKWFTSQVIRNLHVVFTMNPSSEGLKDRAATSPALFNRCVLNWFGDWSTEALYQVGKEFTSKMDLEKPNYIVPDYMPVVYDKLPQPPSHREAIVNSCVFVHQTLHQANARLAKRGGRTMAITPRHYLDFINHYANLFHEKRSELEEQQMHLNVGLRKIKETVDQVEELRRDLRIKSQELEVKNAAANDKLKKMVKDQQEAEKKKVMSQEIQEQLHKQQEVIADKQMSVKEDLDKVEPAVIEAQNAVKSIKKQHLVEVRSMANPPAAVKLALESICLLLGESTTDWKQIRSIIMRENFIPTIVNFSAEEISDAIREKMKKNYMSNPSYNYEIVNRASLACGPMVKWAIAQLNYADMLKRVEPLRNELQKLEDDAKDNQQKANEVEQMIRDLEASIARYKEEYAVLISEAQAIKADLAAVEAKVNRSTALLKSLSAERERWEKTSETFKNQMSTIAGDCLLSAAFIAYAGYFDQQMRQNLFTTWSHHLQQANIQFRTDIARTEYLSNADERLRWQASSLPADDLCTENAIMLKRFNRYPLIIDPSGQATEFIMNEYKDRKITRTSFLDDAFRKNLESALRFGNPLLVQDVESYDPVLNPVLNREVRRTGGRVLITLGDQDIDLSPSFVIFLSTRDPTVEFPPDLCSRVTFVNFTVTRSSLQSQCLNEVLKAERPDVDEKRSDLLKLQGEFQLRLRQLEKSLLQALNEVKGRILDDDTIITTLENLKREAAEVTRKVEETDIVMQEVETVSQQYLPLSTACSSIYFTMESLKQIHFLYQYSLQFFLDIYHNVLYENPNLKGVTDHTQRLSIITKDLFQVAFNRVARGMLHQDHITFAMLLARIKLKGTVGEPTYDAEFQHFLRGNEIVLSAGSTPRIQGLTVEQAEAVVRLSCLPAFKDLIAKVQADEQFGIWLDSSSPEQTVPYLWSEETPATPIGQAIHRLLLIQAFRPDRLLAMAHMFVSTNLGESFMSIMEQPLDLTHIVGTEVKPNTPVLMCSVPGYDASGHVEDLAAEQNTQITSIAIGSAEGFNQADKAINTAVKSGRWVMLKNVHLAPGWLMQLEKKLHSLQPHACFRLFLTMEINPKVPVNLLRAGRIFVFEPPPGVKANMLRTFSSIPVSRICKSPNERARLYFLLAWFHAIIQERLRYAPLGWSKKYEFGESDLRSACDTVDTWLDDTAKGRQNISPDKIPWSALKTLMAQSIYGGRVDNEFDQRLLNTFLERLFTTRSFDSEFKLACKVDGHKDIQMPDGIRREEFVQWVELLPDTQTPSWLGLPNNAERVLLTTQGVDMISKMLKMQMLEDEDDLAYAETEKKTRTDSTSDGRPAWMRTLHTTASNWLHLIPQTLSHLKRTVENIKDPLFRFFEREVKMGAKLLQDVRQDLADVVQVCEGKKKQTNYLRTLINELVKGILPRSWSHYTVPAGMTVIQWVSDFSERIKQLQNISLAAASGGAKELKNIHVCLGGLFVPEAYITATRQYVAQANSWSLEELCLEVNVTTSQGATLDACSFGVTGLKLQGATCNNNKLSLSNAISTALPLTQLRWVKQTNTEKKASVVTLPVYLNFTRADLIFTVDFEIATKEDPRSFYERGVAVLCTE
UniProt Q13561: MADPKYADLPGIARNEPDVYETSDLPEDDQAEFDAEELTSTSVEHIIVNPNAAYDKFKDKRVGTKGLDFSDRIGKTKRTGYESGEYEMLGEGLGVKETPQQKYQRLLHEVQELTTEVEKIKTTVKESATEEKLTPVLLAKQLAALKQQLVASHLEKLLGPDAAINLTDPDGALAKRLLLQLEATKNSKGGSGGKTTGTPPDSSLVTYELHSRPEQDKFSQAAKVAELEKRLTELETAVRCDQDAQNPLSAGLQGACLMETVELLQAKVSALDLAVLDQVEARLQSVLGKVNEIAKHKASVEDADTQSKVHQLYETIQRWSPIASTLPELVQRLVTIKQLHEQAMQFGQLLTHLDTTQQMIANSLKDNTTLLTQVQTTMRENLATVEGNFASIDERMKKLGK

In publication PMC12700831:

biological target: DNAAF9 (endogenous, human airway epithelial cells) (human (endogenous in HAECs)) (UniProt Q5TEA3); test: affinity purification with mass spectrometry; endogenous DNAAF9 immunoprecipitated from HAEC whole-cell lysates at ALI day 19 (ECs) and day 45 (MCs), anti-DNAAF9 against isotype-matched IgG, protein A/G beads, TMT labeling and MS

binding, binds:
ARL3 (endogenous, human airway epithelial cells) (from UniProt P36405 1-182)
CAV1 (from UniProt Q03135 1-178)
DYNC1H1 (from UniProt Q14204 1-4646)
DCTN2 (from UniProt Q13561 1-401)
DYNC1I2 (from UniProt Q13409 1-638)
DNAH5 (from UniProt Q8TE73 1-4624)
DYNC1LI2 (from UniProt O43237 1-492)

No constants are given. Whether binding was seen depends on the method and setting. In cells and extracts the contact can be indirect. Here binding means that the protein was enriched with, or labelled near, the bait; the list need not be complete.
